At least one structure is not confirmed: it was looked up by name or label, or the drawing left a doubt.
Test system: mouse macrophage cell line (RAW264.7)
Experiment: TNF-α production from LPS-stimulated mouse macrophages (Example 3)
Type: cell-based
Conditions: LPS-stimulated RAW264.7, 24 hours, ELISA; drug 10-1000 nM, with or without H2
Method: The following is an in vitro experiment to test the effects of hydrogen on the Celecoxib- or Ibuprofen-mediated anti-inflammatory activities, and the results are shown in FIGS. 10 and 11.
The mouse macrophage cell line (RAW264.7) was seeded at a density of 1.0×10^5 cells/well in 96-well culture plates in Minimum Essential Medium Alpha ( ? -MEM, Sigma) supplemented with penicillin G solution (100 U/ml, GIBCO; Invitrogen, Buffalo, N.Y.), streptomycin ([…], GIBCO; Invitrogen), and gentamicin (50 ? g/ml, GIBCO; Invitrogen) containing 10% FBS in the presence or absence of H2 (300 nM/ml) for 30 min. Then the cells were exposed to LPS (0.1 mg/ml, Invivogen, San Diego, Calif.), with or without a variety of concentrations of Celecoxib or Ibuprofen (10-1000 nM). After culture of the RAW264.7 cells for 24 hours in a CO2 incubator (37° C.), the culture supernatant was harvested and subjected to TNF-α ELISA (R&D Systems).

With Cc1ccc(-c2cc(C(F)(F)F)nn2-c2ccc(S(N)(=O)=O)cc2)cc1 [Celecoxib, celecoxib] the TNF-α production was “promotion of TNF-α production”.

— US9925204B2, “Anti-inflammatory compounds in combination with hydrogen for the treatment of inflammation” (priority 2012, dated 2018)
